# Laboratory results from PubChem BioAssay AID504648 (National Center for Advancing Translational Sciences (NCATS), 2011).
# Out of some 390,000 compounds screened, about 610 (0.16%) were called active. The shares of active, inactive and inconclusive entries below differ from those in the screen. The call rests on the fitted dose curve; in most records, active means well fitted inhibition curve with a large enough effect; inconclusive means small, poorly fitted or top-dose-only effect, or effect the other way, or another doubt; inactive means no such curve, though single readings can be large or run the other way. Where the call is inconclusive, the potency comes from a doubtful curve fit.
# Experiment: Nrf2 qHTS screen for inhibitors: counterscreen for cytotoxicity
# Conditions: A549 ARE-Fluc cells, CellTiter-Fluor viability, 18-24 h; activity change, negative = cytotoxicity: at 46 µM (top of the series)
# Procedure, shortened: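 A549 ARE_Fluc cells in 5% FBS OPTI-MEM were exposed to compounds in concentration-response for 18-24 h at 37 deg C. Viability was read by CellTiter-Fluor fluorescence (Ex 405/Em 525) after 30 min, before the luciferase read.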
# On the % scale 0 is the no-effect control and ±100 the full control effect; potency means the concentration at half of the fitted maximal effect.
Compound,"activity change, negative = cytotoxicity",Potency
COCCCNc1nc2ccccc2nc1NS(=O)(=O)c1cc(Cl)ccc1Cl,inactive: -19.1%,–
CCOC(=O)c1c(NC(=O)c2nc(SC)ncc2Cl)sc(C)c1C,inactive: -7.56%,–
Cc1cc(NC(=O)CN2C(=O)CSc3ccc(S(=O)(=O)N(C)C)cc32)ccc1Br,inactive: -5.34%,–
CC(C)CC(/C(O)=C(\C#N)c1nc2ccccc2[nH]1)N1C(=O)c2ccccc2C1=O (stereo unspecified),–,"inconclusive: 23.1 µM [falling, partial curve]"
O=C(NCCc1ccccc1)c1cccc(NC(=O)C2CCC2)c1,inactive: 0.486%,–
Cc1c(Cl)cccc1NC(=O)NCCOCCn1c(=O)oc2ccccc21,inactive: 1.82%,–
COc1ccccc1CNC(=O)C(=O)NCCC1CCCCN1S(=O)(=O)c1ccccc1 (stereo unspecified),–,"inconclusive: 20.6 µM [falling, partial curve, poor fit]"
O=C(CNC(=O)c1ccccc1F)NCC(c1cccs1)N1CCOCC1 (stereo unspecified),inactive: -0.609%,–
O=C(O)c1ccc(Nc2ccc(Cl)c(Cl)c2)c([N+](=O)[O-])c1,–,"inconclusive: 25.9 µM [falling, partial curve, poor fit]"
Cc1ccc(-n2nnc(-c3cc4ccccc4n3C)n2)cc1,–,"inconclusive: 0.0041 µM [activator, full curve, poor fit]"
COc1ccc(C(C)(C)C)cc1NC(=O)CCCn1c(=O)oc2ccccc21,inactive: 7.89%,–
CCNc1ccc(Br)cc(C(=O)/C=C/c2c(Cl)cccc2Cl)c1=O,–,"inconclusive: 20.6 µM [falling, single point]"
CCCc1ccc(NC(C)C(=O)Nc2ccc(S(=O)(=O)N3CCOCC3)cc2)cc1 (stereo unspecified),–,"inconclusive: 10.3 µM [falling, partial curve, poor fit]"
Cc1ccc(-c2noc(C3CC(=O)N(c4ccc5c(c4)OCCO5)C3)n2)cc1 (stereo unspecified),inactive: -9.88%,–
O=C(COc1ccc2ccccc2c1)Nc1ccccc1C(=O)O,–,"inconclusive: 16.4 µM [falling, single point]"
CCOC(=O)c1[nH]c(C)c(C(=O)N2CCc3ccccc32)c1C,–,"inconclusive: 0.231 µM [falling, full curve]"
N#Cc1c(/N=C/c2ccccc2)oc(-c2ccccc2)c1-c1ccccc1,inactive: 0.125%,–
Cc1cccc(CN2C(=O)/C(=C\c3ccc(C(=O)NCCN4CCOCC4)cc3)Sc3ccccc32)c1,inactive: -23.1%,–
CC1(C)Cc2c(C#N)c(NCCO)nc(-c3ccco3)c2CO1,inactive: 2.26%,–
O=c1[nH]c(=S)c2[nH]cnc2[nH]1,inactive: -1.75%,–
O=S(=O)(CC(CN1CCCC1)N1CCCC1)c1ccc2ccccc2c1 (stereo unspecified),–,"inconclusive: 3.26 µM [falling, partial curve]"
Cc1ccc(Oc2nnc(-c3cccs3)c3ccccc23)cc1,inactive: 2.98%,–
Cc1ccc2c(c1C)-c1c(ccc(C)c1C)C(=O)C2=O,–,"inconclusive: 29.1 µM [falling, single point]"
NC(=O)c1cc([N+](=O)[O-])ccc1NCc1cccnc1,–,"inconclusive: 32.6 µM [falling, partial curve, poor fit]"

Compound,"activity change, negative = cytotoxicity",Potency
O=C1NC(=O)/C(=C/c2cccc3ccccc23)S1,inactive: 1.03%,–
Cc1ccc(C2C(/C=C3/SC(=S)NC3=O)=C(c3cccs3)Oc3ccccc32)cc1 (stereo unspecified),–,active: 10.3 µM
CN1c2ccccc2C(O)=C(C(=S)Nc2ccccc2)S1(=O)=O,–,"inconclusive: 23.1 µM [falling, partial curve, poor fit]"
Cc1cccc(C)c1NC(=O)CN(C)CC(=O)Nc1sc2c(c1C(N)=O)CCC2,inactive: -11.1%,–
CC(=O)Nc1ccc(-c2csc(NNC(=O)c3ccccc3)n2)cc1,–,"inconclusive: 18.4 µM [falling, partial curve, poor fit]"
COCCCNC(=O)C1CCCN(S(C)(=O)=O)C1 (stereo unspecified),inactive: 4.29%,–
Cc1ccc(S(=O)(=O)N2CCN(C(=O)COC(=O)c3cc([N+](=O)[O-])ccc3NCCO)CC2)c(C)c1,–,"inconclusive: 29.1 µM [falling, single point]"
COc1ccccc1-c1cnn2c(NC3CCCC3)cc(C)nc12,inactive: 0.602%,–
Cc1ccc(C)c(CN2C(=O)C(O)(c3c[nH]c4ccccc34)c3ccccc32)c1 (stereo unspecified),–,"inconclusive: 25.9 µM [falling, single point]"
CC(=O)N1CCN(C(=O)CCCNC(=O)c2ccc(Cl)cc2)CC1,inactive: -1.61%,–
COc1ccc(NC(=S)NC(NC(=O)c2cccc3ccccc23)C(Cl)(Cl)Cl)c([N+](=O)[O-])c1 (stereo unspecified),–,"inconclusive: 29.1 µM [falling, single point]"
CCCc1cc(=O)oc2cc(C)c3c(-c4ccccc4)c(C)oc3c12,–,"inconclusive: 7.31 µM [activator, partial curve, poor fit]"
Cc1ccccc1NC1=C/C(=N\S(=O)(=O)c2cccs2)c2ccccc2C1=O,–,"inconclusive: 29.1 µM [falling, single point]"
C#CCOc1ccccc1CNC1CCN(Cc2ccccc2)CC1,–,"inconclusive: 2.31 µM [falling, single point]"
O=C(c1ccc([N+](=O)[O-])o1)N1CCN(c2nc3c(Cl)cccc3s2)CC1,–,"inconclusive: 23.1 µM [falling, partial curve, poor fit]"
CCOC(=O)c1cccc(NC(=O)Nc2cc(OC)ccc2OC)c1,inactive: -7.65%,–
CC(=O)Nc1cccc(-c2csc(Nc3ccc(C)cn3)n2)c1,–,"inconclusive: 29.1 µM [falling, single point]"
CCS(=O)(=O)c1ccc(N=Nc2ccc(O)c3ncccc23)c(OC)c1,–,active: 18.4 µM
COCCn1cc(C(=O)NCCN(C)C)c2c3ccccc3n(C)c2c1=O,inactive: 6.93%,–
O=C(Nc1ccc2nc(-c3ccco3)c(-c3ccco3)nc2c1)NC1CC1,inactive: -11.6%,–
COc1ccc(NC(=O)c2nc(S(=O)(=O)Cc3ccc(C)cc3)ncc2Cl)cc1,–,"inconclusive: 25.9 µM [falling, single point]"
N#C/C(=N\Nc1cccc(Cl)c1)C(=O)c1ccccc1,–,active: 18.4 µM
CC(Nc1nc(N2CCNCC2)nc2ccccc12)c1ccccc1 (stereo unspecified),–,"inconclusive: 18.4 µM [falling, single point]"
Cc1ccc(C(C)(C)C)cc1S(=O)(=O)N1CC(=O)Nc2ccccc21,–,"inconclusive: 18.4 µM [falling, single point]"

Compound,"activity change, negative = cytotoxicity",Potency
O=C(N/N=C/C(Br)=C/c1ccccc1)c1cccs1,–,"inconclusive: 0.13 µM [falling, full curve, poor fit]"
Cc1ccc2nc(N3CCC(C(=O)O)CC3)nc(-c3ccccc3)c2c1,–,"inconclusive: 14.6 µM [activator, partial curve]"
CN(C)C(CNC(=O)c1ccc(S(=O)(=O)N(C)C)cc1)Cc1ccccc1 (stereo unspecified),–,"inconclusive: 29.1 µM [falling, single point]"
COc1ccc(C(Cl)=C(c2ccc(OC)cc2)c2ccc(OC)cc2)cc1,–,"inconclusive: 8.2 µM [activator, partial curve, poor fit]"
CC1CCc2cc(F)ccc2N1C(=O)CSc1nnc2c(n1)[nH]c1ccc(F)cc12 (stereo unspecified),–,"inconclusive: 18.4 µM [falling, single point]"
CCCCC(=O)Nc1ccc(OCc2cc(=O)n3ccc(C)cc3n2)cc1,inactive: 17.1%,–
O=C(Oc1c(-c2ccccc2Cl)oc2ccccc2c1=O)c1ccc(Cl)cc1,–,"inconclusive: 20.6 µM [falling, partial curve, poor fit]"
CCOC(=O)c1c2c(n(-c3ccc(OC)cc3)c1C)C(=O)C(=O)c1ccccc1-2,–,"inconclusive: 25.9 µM [falling, single point]"
N#Cc1c(NC(=O)C2CC(c3ccccc3O)=NO2)sc2c1CCC2 (stereo unspecified),inactive: 6.96%,–
COCC(C)NC(=O)c1ccccc1OC(C)=O (stereo unspecified),inactive: 1.46%,–
Cc1ccc(Cn2nnc3c(=O)n(CC(=O)NCC4CCCO4)cnc32)cc1 (stereo unspecified),–,"inconclusive: 18.4 µM [activator, partial curve, poor fit]"
O=C(Cn1c(C(=O)N2CCN(C3CCCCC3)CC2)cc2sccc21)c1ccccc1,–,"inconclusive: 29.1 µM [falling, single point]"
O=S1(=O)CCOC[C@H](CC2CCCCC2)N1Cc1cccc(C(F)(F)F)c1,–,"inconclusive: 29.1 µM [falling, single point]"
COc1ccc(-n2nc(C(=O)c3cccs3)cc(-c3nc4ccccc4[nH]3)c2=N)cc1,inactive: 3.52%,–
O=C(C[C@@H]1C/C=C\CC[C@H](Cc2ccc(F)cc2)C(=O)OC[C@@H]2CCCN2C1=O)N[C@H](CO)Cc1ccccc1,inactive: -15.9%,–
COC(=O)c1cn(CCOc2ccccc2F)c2ccccc12,–,"inconclusive: 18.4 µM [falling, partial curve, poor fit]"
Cc1ccc(OCC(=O)Nc2ccc(-c3nc4ccc(C)cc4o3)cc2)cc1,inactive: -1.06%,–
CCCCOc1ccccc1NC(=O)Cn1c(-c2nonc2N)nc2ccccc21,–,"inconclusive: 4.11 µM [falling, partial curve, poor fit]"
Cc1cc(NCCCCO)n2c(nc3ccccc32)c1C#N,–,"inconclusive: 32.6 µM [falling, partial curve, poor fit]"
CN(C)c1c([N+](=O)[O-])cc(N2C(=O)C=CC2=O)cc1[N+](=O)[O-],–,"inconclusive: 5.8 µM [falling, single point]"
Cc1cc(C)n(-c2nc3ccccc3c(=O)n2OCC(=O)OCc2ccccc2)n1,–,"inconclusive: 20.6 µM [falling, partial curve]"
CC1(C)CC(=O)C2=C(C1)Oc1nc3ccccc3cc1C2C(C#N)C#N (stereo unspecified),–,"inconclusive: 32.6 µM [falling, partial curve, poor fit]"
COc1cc(C(=O)N(C)CC2CCN(CCc3cccc(C(F)(F)F)c3)CC2)ccc1C,–,"inconclusive: 20.6 µM [falling, single point]"

# Not a retest: entries from further up.
Compound,"activity change, negative = cytotoxicity",Potency
N#Cc1c(NC(=O)C2CC(c3ccccc3O)=NO2)sc2c1CCC2 (stereo unspecified),inactive: 6.96%,–
COCC(C)NC(=O)c1ccccc1OC(C)=O (stereo unspecified),inactive: 1.46%,–
Cc1ccc(Cn2nnc3c(=O)n(CC(=O)NCC4CCCO4)cnc32)cc1 (stereo unspecified),–,"inconclusive: 18.4 µM [activator, partial curve, poor fit]"
O=C(Cn1c(C(=O)N2CCN(C3CCCCC3)CC2)cc2sccc21)c1ccccc1,–,"inconclusive: 29.1 µM [falling, single point]"
O=S1(=O)CCOC[C@H](CC2CCCCC2)N1Cc1cccc(C(F)(F)F)c1,–,"inconclusive: 29.1 µM [falling, single point]"
COc1ccc(-n2nc(C(=O)c3cccs3)cc(-c3nc4ccccc4[nH]3)c2=N)cc1,inactive: 3.52%,–
O=C(C[C@@H]1C/C=C\CC[C@H](Cc2ccc(F)cc2)C(=O)OC[C@@H]2CCCN2C1=O)N[C@H](CO)Cc1ccccc1,inactive: -15.9%,–
